# Results published in the supplement of paper PMC9744312.
# Where a name gives a salt, the structure may show the parent alone. This is one part of the list. This is a noisy data set.
# System: Peyronie's disease tunica albuginea primary fibroblasts
# Experiment: cell viability (DRAQ5 nuclear stain) relative to TGF-beta1-only control; higher = more viable cells
# Conditions: 10 µM; TGF-beta1 10 ng/mL; 72 h
row,Structure (SMILES),cell viability
1,CN1CCN(c2ccc(C(=O)Nc3n[nH]c4ccc(Cc5cc(F)cc(F)c5)cc34)c(NC3CCOCC3)c2)CC1 [Entrectinib (RXDX-101)],51.6%
2,S=P(N1CC1)(N1CC1)N1CC1 [Thiotepa],84%
3,CCN1CCCC1CNC(=O)c1cc(S(=O)(=O)CC)c(N)cc1OC (stereo not given) [Amisulpride],60%
4,CC(C)(CO)C(O)C(=O)NCCCO (racemic) [DL-Panthenol],87%
5,Nc1nc(N)nc(-c2cc(Cl)ccc2Cl)n1 [Irsogladine],94.6%
6,CNC(=O)c1ccccc1Sc1ccc2c(/C=C/c3ccccn3)n[nH]c2c1 [Axitinib],84.7%
7,CC(CN1c2ccccc2Sc2ccccc21)N(C)C (stereo not given) [Promethazine HCl],81.7%
8,NS(=O)(=O)c1cc2c(cc1C(F)(F)F)NC(Cc1ccccc1)NS2(=O)=O (stereo not given) [Bendroflumethiazide],86.1%
9,[OH][Al]([OH])[OH] [Aluminium hydroxide],95.4%
10,O=C(c1ccc(OCCN2CCCCC2)cc1)c1c(-c2ccc(O)cc2)sc2cc(O)ccc12 [Raloxifene HCl],98.9%
11,CCn1cc(C(=O)O)c(=O)c2cc(F)c(N3CCNCC3)cc21 [Norfloxacin],96%
12,CCOC(=O)C1=C(C)NC(C)=C(C(=O)OC)C1c1cccc([N+](=O)[O-])c1 (stereo not given) [Nitrendipine],95.2%
13,C[C@]12CC[C@@H]3c4ccc(O)cc4CC[C@H]3[C@@H]1C[C@@H](O)[C@@H]2O [Estriol],100%
14,CCc1cccc2c3c([nH]c12)C(CC)(CC(=O)O)OCC3 (stereo not given) [Etodolac],83.5%
15,CCC[C@H](NC(=O)[C@@H]1[C@H]2CCC[C@H]2CN1C(=O)[C@@H](NC(=O)[C@@H](NC(=O)c1cnccn1)C1CCCCC1)C(C)(C)C)C(=O)C(=O)NC1CC1 [Telaprevir (VX-950)],82%
16,COc1cc2c(cc1OC)[C@H]1C[C@@H](OC(=O)[C@@H](N)C(C)C)[C@H](CC(C)C)CN1CC2 [Valbenazine tosylate],87.3%
17,CC1=C(CC(=O)O)c2cc(F)ccc2/C1=C\c1ccc([S+](C)[O-])cc1 (stereo not given) [Sulindac],93.4%
18,C[C@H](NC(=O)[C@@H](Cc1ccc2ccccc2c1)NC(=O)[C@@H](C)N)C(=O)N[C@@H](Cc1c[nH]c2ccccc12)C(=O)N[C@H](Cc1ccccc1)C(=O)N[C@@H](CCCCN)C(N)=O,98.5%
19,CCOC(=O)[C@H](CCc1ccccc1)N[C@@H](C)C(=O)N1CCC[C@H]1C(=O)O [Enalapril Maleate],99.6%
20,Cn1nnnc1SCC1=C(C(=O)O)N2C(=O)[C@@H](NC(=O)[C@H](OC=O)c3ccccc3)[C@H]2SC1 [Cefamandole nafate],91.8%

# An excerpt from above in order of length of the SMILES, rising:
row,Structure (SMILES),cell viability
3,CCN1CCCC1CNC(=O)c1cc(S(=O)(=O)CC)c(N)cc1OC (stereo not given) [Amisulpride],60%
20,Cn1nnnc1SCC1=C(C(=O)O)N2C(=O)[C@@H](NC(=O)[C@H](OC=O)c3ccccc3)[C@H]2SC1 [Cefamandole nafate],91.8%
18,C[C@H](NC(=O)[C@@H](Cc1ccc2ccccc2c1)NC(=O)[C@@H](C)N)C(=O)N[C@@H](Cc1c[nH]c2ccccc12)C(=O)N[C@H](Cc1ccccc1)C(=O)N[C@@H](CCCCN)C(N)=O,98.5%
